# Data as given in PubChem BioAssay AID1259405 (NCATS, 2018).
# Aim: 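Silenced genes that increase secreted GFP made by CHO cells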 (primary screen)
# System: Chinese hamster CHO-K1 ovary cells with stable secreted eGFP expression
# Reagents: single siRNA against mouse genes, 0.8 pmol siRNA per well (2 µl of 400 nM stock)
# Time to read-out: 3 days
# Measurement: 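Percent of the per-plate non-targeting control median for intracellular GFP per well by laser scanning cytometry and for cell viability by ATP luminescence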
# Reading the numbers: GFP, % of control: higher = more GFP per well, higher productivity; viability (ATP), % of control: higher = more viable cells (more ATP)
# Hit rule: 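a knock-down is called active if GFP reaches 120% or more of non-targeting control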
# Here is one part, drawn at random, of about 50,000 reagents. In the full data, about 4,000 (8%) were called active. 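Mouse siRNA library applied to hamster cells; one well for each siRNA.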 Entries without a mark were called inactive. The numbers tell different reagents against one gene apart.
gene knocked down,reagent no.,"GFP, % of control","viability (ATP), % of control"
Mmp12 (GeneID 17381),1,53.4,75.7
Mmp12 (GeneID 17381),2,71.4,82.5
Usp27x (GeneID 54651),1,99.1,98.3
Usp27x (GeneID 54651),2,63.9,62.1
Usp27x (GeneID 54651),3,44.8,68.1
Iqce (GeneID 74239),1,83.6,84.8
Iqce (GeneID 74239),2,71.8,76.5
Iqce (GeneID 74239),3,61.6,74.1
Psg27 (GeneID 545925),1,37.7,24.5
Psg27 (GeneID 545925),2,159 (active),57.7
Psg27 (GeneID 545925),3,95.1,111
Bcl2 (GeneID 12043),1,77.8,53.1
Bcl2 (GeneID 12043),2,66,80.7
Kansl3 (GeneID 226976),1,63.5,80.8
Kansl3 (GeneID 226976),2,48.1,82.9
Kansl3 (GeneID 226976),3,98.2,124
Pdc (GeneID 20028),1,97.2,131
Pdc (GeneID 20028),2,87.7,71.8
Slc6a5 (GeneID 104245),1,83.8,79.6
Slc6a5 (GeneID 104245),2,54.8,53.9
Slc6a5 (GeneID 104245),3,78,75.5
Serinc3 (GeneID 26943),1,125 (active),86.3
Serinc3 (GeneID 26943),2,60.9,82.4
Serinc3 (GeneID 26943),3,63.5,66
Dhodh (GeneID 56749),1,117,89.8
Dhodh (GeneID 56749),2,46.3,60.1
Dhodh (GeneID 56749),3,82.2,72.7
Cpz (GeneID 242939),1,105,88
Cpz (GeneID 242939),2,76.7,94.5
Cpz (GeneID 242939),3,80.9,53.7
Fbxo41 (GeneID 330369),1,75.5,85.2
Fbxo41 (GeneID 330369),2,68.2,50.6
Fbxo41 (GeneID 330369),3,82.2,83.3
Vamp4 (GeneID 53330),1,62.7,69.2
Vamp4 (GeneID 53330),2,74.1,97.1
Vamp4 (GeneID 53330),3,110,60

Part of the list above, limited to “GFP, % of control”:
Iqce (GeneID 74239) #3	61.6
Psg27 (GeneID 545925) #1	37.7
Psg27 (GeneID 545925) #2	159 (active)
Psg27 (GeneID 545925) #3	95.1
Bcl2 (GeneID 12043) #1	77.8
Bcl2 (GeneID 12043) #2	66
Kansl3 (GeneID 226976) #1	63.5
Kansl3 (GeneID 226976) #2	48.1
Kansl3 (GeneID 226976) #3	98.2
Pdc (GeneID 20028) #1	97.2
Pdc (GeneID 20028) #2	87.7
Slc6a5 (GeneID 104245) #1	83.8
Slc6a5 (GeneID 104245) #2	54.8
Slc6a5 (GeneID 104245) #3	78

Further records follow:
gene knocked down,reagent no.,"GFP, % of control","viability (ATP), % of control"
Cd180 (GeneID 17079),1,88.3,109
Cd180 (GeneID 17079),2,113,87
Cd180 (GeneID 17079),3,77.3,86.1
Fpr3 (GeneID 14294),1,105,71.4
Fpr3 (GeneID 14294),2,75.9,63.4
Fpr3 (GeneID 14294),3,74,66.7
Elovl7 (GeneID 74559),1,76.9,49.7
Elovl7 (GeneID 74559),2,65.9,82.8
Elovl7 (GeneID 74559),3,49,46.1
Krt31 (GeneID 16660),1,81.1,85.3
Krt31 (GeneID 16660),2,107,116
Rras2 (GeneID 66922),1,58,73.8
Rras2 (GeneID 66922),2,93.7,85.8
Rras2 (GeneID 66922),3,75.9,68.6
Ndufaf3 (GeneID 66706),1,57.8,50.4
Ndufaf3 (GeneID 66706),2,92.8,46.5
Ndufaf3 (GeneID 66706),3,70.1,85
Sys1 (GeneID 66460),1,113,77.9
Sys1 (GeneID 66460),2,85.8,64.8
Sys1 (GeneID 66460),3,76.8,68.7
Lrp5 (GeneID 16973),1,89.4,70.9
Lrp5 (GeneID 16973),2,42.6,43
Lrp5 (GeneID 16973),3,98.7,72.5
Slitrk1 (GeneID 76965),1,126 (active),114
Slitrk1 (GeneID 76965),2,118,89.9
Slitrk1 (GeneID 76965),3,110,67.4
H6pd (GeneID 100198),1,101,69.3
H6pd (GeneID 100198),2,62.7,57.1
H6pd (GeneID 100198),3,62.7,61.7
Zfp709 (GeneID 236193),1,53.8,68.8
Zfp709 (GeneID 236193),2,55,54.2
Klhl17 (GeneID 231003),1,42.9,31.6
Klhl17 (GeneID 231003),2,59.8,62.8
Klhl17 (GeneID 231003),3,105,79.8
Kat8 (GeneID 67773),1,94.4,85.9
Kat8 (GeneID 67773),2,101,43.5
Kat8 (GeneID 67773),3,100,75
Trpc7 (GeneID 26946),1,110,133
Trpc7 (GeneID 26946),2,79.5,86.2
Trpc7 (GeneID 26946),3,97.1,84.8
Aplnr (GeneID 23796),1,64.5,71.3
Aplnr (GeneID 23796),2,36.3,56
Aplnr (GeneID 23796),3,69.1,69.1
Sema5a (GeneID 20356),1,59.4,57.6
Sema5a (GeneID 20356),2,66.2,85.4
Sema5a (GeneID 20356),3,101,107
Cp (GeneID 12870),1,82.1,112
Cp (GeneID 12870),2,57.2,55.3
Cp (GeneID 12870),3,59.9,47.2
Rrm1 (GeneID 20133),1,127 (active),122
Rrm1 (GeneID 20133),2,86.8,54.6
Rrm1 (GeneID 20133),3,50.2,23
Prl8a2 (GeneID 13529),1,76.9,57.4
Prl8a2 (GeneID 13529),2,60.2,49.5
Prl8a2 (GeneID 13529),3,21.8,42.7
Tmem43 (GeneID 74122),1,76.2,93.8
Tmem43 (GeneID 74122),2,46.7,38
Tmem43 (GeneID 74122),3,56.5,67.9
Abhd4 (GeneID 105501),1,78.3,49.5
Abhd4 (GeneID 105501),2,88,73.6
Abhd4 (GeneID 105501),3,84.2,78.8
Pla2g4a (GeneID 18783),1,66.2,78.2
Pla2g4a (GeneID 18783),2,63.5,57.6
Pla2g4a (GeneID 18783),3,95.5,107
Rnf133 (GeneID 386611),1,81.1,74.2
Rnf133 (GeneID 386611),2,71.4,54.8
Rnf133 (GeneID 386611),3,88.2,80.9
Gm773 (GeneID 331416),1,44.9,45.4
Gm773 (GeneID 331416),2,90.9,89.2
Gm773 (GeneID 331416),3,63.6,83.1
2210409E12Rik (GeneID 72381),1,157 (active),124
2210409E12Rik (GeneID 72381),2,96.6,105
2210409E12Rik (GeneID 72381),3,102,60.3
